Test [1] has as its target T1, NAC052, yeast two-hybrid fusion (Arabidopsis thaliana) (UniProt Q9SQY0).
T1 sequence: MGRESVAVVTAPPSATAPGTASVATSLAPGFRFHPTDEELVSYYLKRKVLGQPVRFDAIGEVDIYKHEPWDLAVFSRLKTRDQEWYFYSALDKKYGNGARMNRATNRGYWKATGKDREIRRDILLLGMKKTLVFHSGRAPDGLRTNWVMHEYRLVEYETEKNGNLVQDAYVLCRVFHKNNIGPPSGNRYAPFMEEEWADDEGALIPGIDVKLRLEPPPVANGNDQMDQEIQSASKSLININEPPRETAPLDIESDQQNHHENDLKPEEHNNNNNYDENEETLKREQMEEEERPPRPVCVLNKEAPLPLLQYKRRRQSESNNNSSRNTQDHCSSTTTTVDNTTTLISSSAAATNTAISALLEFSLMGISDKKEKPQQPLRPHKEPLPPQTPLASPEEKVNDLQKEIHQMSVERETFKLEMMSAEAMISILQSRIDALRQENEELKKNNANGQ
As to the kind of experiment: two-hybrid; pGADT7 and pGBKT7 fusions, strains AH109 and Y187 mated; growth on SD-LWH with 0 or 3 mM 3-AT.

Test [2] addresses T2, NAC050, yeast two-hybrid fusion (Arabidopsis thaliana) (UniProt Q9SQX9).
T2 sequence: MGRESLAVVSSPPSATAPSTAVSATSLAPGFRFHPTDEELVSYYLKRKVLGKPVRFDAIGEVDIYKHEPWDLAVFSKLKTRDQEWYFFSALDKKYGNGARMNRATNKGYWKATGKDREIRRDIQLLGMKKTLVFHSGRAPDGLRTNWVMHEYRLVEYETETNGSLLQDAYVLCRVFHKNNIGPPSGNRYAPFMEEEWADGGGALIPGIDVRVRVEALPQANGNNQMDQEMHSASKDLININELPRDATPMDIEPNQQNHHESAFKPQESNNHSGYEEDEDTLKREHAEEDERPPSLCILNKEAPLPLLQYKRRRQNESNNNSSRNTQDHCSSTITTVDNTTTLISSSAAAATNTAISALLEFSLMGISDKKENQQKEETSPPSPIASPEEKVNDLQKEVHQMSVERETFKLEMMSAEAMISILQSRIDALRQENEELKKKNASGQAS
The description is as above.

Test [3] deals with T3, NAC050-MBP, recombinant (Arabidopsis thaliana) (UniProt Q9SQX9).
T3 sequence: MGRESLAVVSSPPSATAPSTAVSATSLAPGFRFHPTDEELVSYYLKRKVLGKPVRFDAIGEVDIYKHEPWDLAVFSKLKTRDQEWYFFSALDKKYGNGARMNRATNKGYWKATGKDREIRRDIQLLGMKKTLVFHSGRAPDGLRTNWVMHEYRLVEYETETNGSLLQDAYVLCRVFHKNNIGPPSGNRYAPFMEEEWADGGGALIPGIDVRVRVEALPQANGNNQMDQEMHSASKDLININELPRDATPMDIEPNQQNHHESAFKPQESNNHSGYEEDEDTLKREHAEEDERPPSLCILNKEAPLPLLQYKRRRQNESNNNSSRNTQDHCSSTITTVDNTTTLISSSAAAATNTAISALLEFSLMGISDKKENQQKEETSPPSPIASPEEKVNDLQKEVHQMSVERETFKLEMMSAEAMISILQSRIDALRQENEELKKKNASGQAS
As to the kind of experiment: SEC; purified proteins mixed in equivalent molar amounts, 4 °C overnight, Superose 6 10/300GL; fractions detected by immunoblotting (GST, FLAG, MBP, HIS); both purified.

In test [4] the target is HTH1, yeast two-hybrid fusion (Arabidopsis thaliana). Put plainly: two-hybrid; pGADT7 and pGBKT7 fusions, strains AH109 and Y187 mated; growth on SD-LWH with 0 or 3 mM 3-AT.
Test [5] concerns the target ZDP2, yeast two-hybrid fusion (Arabidopsis thaliana). The test is described as above.
Test [6] concerns the target HTH3, yeast two-hybrid fusion (Arabidopsis thaliana). The description is as above.
Test [7] addresses HTH2, yeast two-hybrid fusion (Arabidopsis thaliana). The description is as above.
The target in test [8] is ZDP2-MBP, recombinant (gel filtration) (Arabidopsis thaliana). As to the kind of experiment: SEC; purified proteins mixed in equivalent molar amounts, 4 °C overnight, Superose 6 10/300GL; fractions detected by immunoblotting (GST, FLAG, MBP, HIS); both purified. In general terms: SEC sorts molecules by how far they enter the pores of the column.
The target of test [9] is HTH1-His, recombinant (gel filtration) (Arabidopsis thaliana). The test is described as above.

These are yes or no findings as the source states them, for the method shown. For some of these results: Binding calls can cover weak binding; strength is not graded here. Sequences can lack the tags named with a protein.

With “HTH2, yeast two-hybrid fusion (Arabidopsis thaliana)”, the binding entry in test [1] and in [2] was “no binding” in each case.
As to “HTH3, yeast two-hybrid fusion (Arabidopsis thaliana)”, the binding entry in [1] and in test [2] was “no binding” each time.
As for “HTH1, yeast two-hybrid fusion (Arabidopsis thaliana)”, the binding result in test [1] and in test [2] was “no binding” throughout.
Turning to “ZDP2-MBP, recombinant (gel filtration) (Arabidopsis thaliana)”, the binding result in test [3] is listed as “binds”.

B1: TRB2, yeast two-hybrid fusion (protein, UniProt Q9FJW5 1-299)
chain: MGAPKQKWTPEEEAALKAGVLKHGTGKWRTILSDTEFSLILKSRSNVDLKDKWRNISVTALWGSRKKAKLALKRTPPGTKQDDNNTALTIVALTNDDERAKPTSPGGSGGGSPRTCASKRSITSLDKIIFEAITNLRELRGSDRTSIFLYIEENFKTPPNMKRHVAVRLKHLSSNGTLVKIKHKYRFSSNFIPAGARQKAPQLFLEGNNKKDPTKPEENGANSLTKFRVDGELYMIKGMTAQEAAEAAARAVAEAEFAITEAEQAAKEAERAEAEAEAAQIFAKAAMKALKFRIRNHPW
For B1, the binding entry in [4], in test [5], in test [6] and in test [7] was “binds” each time.

B2: TRB3, yeast two-hybrid fusion (protein, UniProt Q9M2X3 1-295)
chain: MGAPKLKWTPEEETALKAGVLKHGTGKWRTILSDPVYSTILKSRSNVDLKDKWRNISVTALWGSRKKAKLALKRTPLSGSRQDDNATAITIVSLANGDVGGQQIDAPSPPAGSCEPPRPSTSVDKIILEAITSLKRPFGPDGKSILMYIEENFKMQPDMKRLVTSRLKYLTNVGTLVKKKHKYRISQNYMAEGEGQRSPQLLLEGNKENTPKPEENGVKNLTKSQVGGEVMIMGMTEKEAAAAAARAVAEAEFAMAEAEEAAREADKAEAEAEAAHIFAKAAMKAVKYRMHSQTR
On to B2, for which the binding result in test [4], in [5], in [6] and in test [7] was “binds” in each case.

B3: ICU11-GST, recombinant (gel filtration) (protein, UniProt Q3ED68 1-397)
chain: MCNQTPLRSMALDSSGKQPEQQQQQQPRASSGNGEARLKLRRTPNEEHEPENYEDLPLDYSPSLFTSLERYLPEQLLNSTRIDKASFMRDLLLRYSPDTERVRVLRHKEYRDKIMSSYQRLHGEIYTLDPSSFFAPSFLGAFSRKSEPNFRSSMVESYPGIFTFEMFKPQFCEMLLAEVEHMEKWVYDSRSTIMRPNTMNNFGVVLDDFGFDSMLQKLVDDFISPIAQVLFPEVCGTSLDSHHGYIVEYGKDRDVDLGFHVDDSEVSLNVCLGKQFSGGELYFRGVRCDKHVNSDSTEKEVYDYSHVPGHAILHRGRHRHGARATTSGHRANLILWCRSSTFREMKNYQRDFSGWCGGCKLDKQRRQRDSINATKEILARKAAEKTLVELASKSCAE
On to B3, for which, in [8], the binding entry is given as “binds”.

B4: TRB1, yeast two-hybrid fusion (protein, UniProt Q8VWK4 1-300)
chain: MGAPKQKWTQEEESALKSGVIKHGPGKWRTILKDPEFSGVLYLRSNVDLKDKWRNMSVMANGWGSREKSRLAVKRTFSLPKQEENSLALTNSLQSDEENVDATSGLQVSSNPPPRRPNVRLDSLIMEAIATLKEPGGCNKTTIGAYIEDQYHAPPDFKRLLSTKLKYLTSCGKLVKVKRKYRIPNSTPLSSHRRKGLGVFGGKQRTSSLPSPKTDIDEVNFQTRSQIDTEIARMKSMNVHEAAAVAAQAVAEAEAAMAEAEEAAKEAEAAEAEAEAAQAFAEEASKTLKGRNICKMMIRA
In the case of B4, the binding entry in test [4], in test [5], in test [6] and in test [7] was “binds” each time.

B5: TRB1-His, recombinant (natural protein, Arabidopsis thaliana, UniProt Q8VWK4 1-300, looked up)
chain: MGAPKQKWTQEEESALKSGVIKHGPGKWRTILKDPEFSGVLYLRSNVDLKDKWRNMSVMANGWGSREKSRLAVKRTFSLPKQEENSLALTNSLQSDEENVDATSGLQVSSNPPPRRPNVRLDSLIMEAIATLKEPGGCNKTTIGAYIEDQYHAPPDFKRLLSTKLKYLTSCGKLVKVKRKYRIPNSTPLSSHRRKGLGVFGGKQRTSSLPSPKTDIDEVNFQTRSQIDTEIARMKSMNVHEAAAVAAQAVAEAEAAMAEAEEAAKEAEAAEAEAEAAQAFAEEASKTLKGRNICKMMIRA
notes: TRB1, Arabidopsis thaliana, AT1G49950; full length in the vector pSMT3; pSMT3 is recalled to add an N-terminal His-SUMO; source: E. coli BL21, purified (His beads)
As for B5, the binding result in [9] and in test [8] was “binds” throughout.

The values above are taken from paper PMC12713088, “Arabidopsis TRB Proteins Form Two Closely Related Complexes to Mediate H3K4me3 Demethylation and Transcriptional Repression” (Advanced Science, 2025).
